From article PMC7862700
This is a selection; strong and weak results do not stand in their true shares. For some of these results: At the low end of the ranking the order means little. The list shows a part of the results. For some of these results: The exact form of the protein is not confirmed.

The chains behind the UniProt entries cited, without tags or fusion partners. Where a name states a change or a piece, a line headed by the entry shows the natural chain unless it says otherwise.
UniProt Q00613: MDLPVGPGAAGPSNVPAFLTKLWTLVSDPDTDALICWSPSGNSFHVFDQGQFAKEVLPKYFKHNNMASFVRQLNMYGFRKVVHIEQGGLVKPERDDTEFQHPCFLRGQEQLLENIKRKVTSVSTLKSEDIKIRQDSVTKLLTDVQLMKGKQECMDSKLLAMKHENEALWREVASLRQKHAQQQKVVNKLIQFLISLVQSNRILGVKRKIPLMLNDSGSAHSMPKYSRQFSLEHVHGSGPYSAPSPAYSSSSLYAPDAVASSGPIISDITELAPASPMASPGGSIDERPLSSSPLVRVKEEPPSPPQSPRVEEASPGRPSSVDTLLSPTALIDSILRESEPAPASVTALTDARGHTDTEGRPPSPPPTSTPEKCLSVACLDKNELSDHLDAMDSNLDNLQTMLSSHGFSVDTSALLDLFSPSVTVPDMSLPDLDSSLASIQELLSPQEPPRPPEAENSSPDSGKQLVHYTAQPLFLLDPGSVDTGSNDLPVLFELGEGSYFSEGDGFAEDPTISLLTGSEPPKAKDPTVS

Experiments:
HSF1 = HSF1 (UniProt Q00613); test: DAPPL (digital affinity profiling via proximity ligation, sequencing); conditions: 10 mM Tris-HCl pH 7.5, 50 mM NaCl, 1 mM DTT, 4% glycerol, room temperature, 30 min; GST-TFs on glutathione beads, 16-mer random dsDNA library, 0.1% …; high values mean tight binding; double strand, one strand shown; scale: fold enrichment (6-mer frequency, TF over GST control)
ELF2 = biological target: T1, ELF2 (UniProt Q15723); test: as above; conditions: 10 mM Tris-HCl pH 7.5, 50 mM NaCl, 1 mM DTT, 4% glycerol, room temperature, 30 min; GST-TFs on glutathione beads, 16-mer random dsDNA library, 0.1% …; high values mean tight binding; double strand, one strand shown; scale: fold enrichment (6-mer frequency, TF over GST control)
T1 sequence: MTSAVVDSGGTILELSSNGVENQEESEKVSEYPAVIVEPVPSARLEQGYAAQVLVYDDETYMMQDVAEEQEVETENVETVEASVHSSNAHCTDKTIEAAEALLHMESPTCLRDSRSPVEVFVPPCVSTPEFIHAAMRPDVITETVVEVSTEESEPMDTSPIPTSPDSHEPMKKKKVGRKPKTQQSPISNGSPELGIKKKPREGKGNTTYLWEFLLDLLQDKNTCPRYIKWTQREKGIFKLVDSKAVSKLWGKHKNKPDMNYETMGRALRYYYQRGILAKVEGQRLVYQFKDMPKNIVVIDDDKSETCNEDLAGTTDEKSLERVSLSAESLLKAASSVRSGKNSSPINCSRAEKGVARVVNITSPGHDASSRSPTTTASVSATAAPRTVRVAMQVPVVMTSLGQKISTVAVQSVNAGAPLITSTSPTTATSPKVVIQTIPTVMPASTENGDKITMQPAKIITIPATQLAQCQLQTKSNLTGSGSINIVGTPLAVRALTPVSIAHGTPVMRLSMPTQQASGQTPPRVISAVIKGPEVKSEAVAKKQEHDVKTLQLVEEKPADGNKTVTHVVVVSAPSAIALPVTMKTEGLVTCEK

| Sequence | binding signal (HSF1) | binding signal (ELF2) |
| --- | --- | --- |
| AGGCTA | 0.985 | 0.907 |
| ACGGTA | 0.85 | 0.959 |
| TGTACC | 1.03 | 1.29 |
| TGTGAT | 0.916 | 0.953 |
| AGTCTT | 0.981 | 0.961 |
| CACGGA | 0.768 | 1.32 |
| CTAAGG | 0.961 | 0.856 |
| CAACCG | 0.741 | 1.07 |
| GAATGG | 1.07 | 0.901 |
| TTGCAA | 1.07 | 1.14 |
| CCGTTA | 0.857 | 0.886 |
| CATGTT | 0.956 | 1.01 |
| GCAATG | 0.78 | 0.968 |
| TTATTA | 1.75 | 1.13 |
| GCAAGC | 0.788 | 0.906 |
| TAGGTA | 1.03 | 0.954 |
| TTTTAG | 1.19 | 1.13 |
| TCAACA | 0.932 | 1 |
| AACAAG | 1.03 | 1.16 |
| GCGGCA | 0.732 | 0.856 |
| GCGTTG | 0.732 | 0.866 |

Rewritten tab-delimited: entries from further up
Sequence	binding signal (HSF1)	binding signal (ELF2)
AGGCTA	0.985	0.907
ACGGTA	0.85	0.959

Additional results follow:

| Sequence | binding signal (HSF1) | binding signal (ELF2) |
| --- | --- | --- |
| ACTATA | 1.26 | 1.27 |
| ACGCTC | 0.943 | 0.943 |
| TTCTTA | 1.85 | 1.36 |
| TGTTGA | 0.878 | 0.988 |
| CGGAAG | 0.642 | 4.9 |
| AAACGA | 1.09 | 1.07 |
| ACATCG | 1.01 | 0.997 |
| AAGGGT | 0.95 | 0.956 |
| TCTGTA | 1.31 | 1.14 |
| GCGTTT | 0.932 | 1.15 |
| CACCAC | 0.822 | 1.12 |
| AGGATG | 0.83 | 1.1 |
| AGATTT | 1.75 | 1.2 |
| GGACTC | 0.885 | 0.984 |
| CACAGC | 0.78 | 0.987 |
| TAAGGC | 0.984 | 0.89 |
| TAGGTC | 0.857 | 0.925 |
| GTTTGC | 0.856 | 1.04 |
| AGTGAC | 0.77 | 1.07 |
| TGAACG | 0.91 | 0.873 |
